Assay results from publication PMC7438335.
No constants are given. Whether binding was seen depends on the method and setting. In cells and extracts the contact can be indirect. Some entries that bind do so weakly or less than the wild type. For some assays here: Tags and fused reporters may be left off the sequences shown.

By UniProt entry, the sequences of proteins in these tests, tags left out.
UniProt Q9V6Q2: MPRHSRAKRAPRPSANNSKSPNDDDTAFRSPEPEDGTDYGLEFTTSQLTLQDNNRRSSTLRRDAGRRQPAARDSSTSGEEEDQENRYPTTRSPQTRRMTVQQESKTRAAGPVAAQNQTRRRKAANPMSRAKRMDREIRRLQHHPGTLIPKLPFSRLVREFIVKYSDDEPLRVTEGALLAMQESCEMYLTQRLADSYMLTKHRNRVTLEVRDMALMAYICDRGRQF

Tests used:
[1] = biological target: T1, Barrier-to-autointegration factor (BAF) (Drosophila melanogaster (endogenous in S2 cells)) (UniProt Q9VLU0); assay: co-IP; extracts of a stable S2 cell line expressing CENP-A^CID::YFP; IP with αBAF or αGFP antibodies, WB
T1 sequence: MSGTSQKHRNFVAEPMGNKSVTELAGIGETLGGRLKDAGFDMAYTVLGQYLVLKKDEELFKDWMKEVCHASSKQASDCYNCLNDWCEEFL

[2] = biological target: T1, Barrier-to-autointegration factor (BAF) (Drosophila melanogaster (endogenous in S2 cells)); assay: co-IP; S2 cell extracts (50 mM Tris-HCl pH 8, 5 mM EDTA, 0.5% NP-40, supplemented to 300 mM NaCl), overnight at 4 °C with αBAF or αCENP-C antibodies or preimmune serum, Protein A Sepharose, WB; also after DNAse I treatment of the extract; also from dsRNA^NHK1 cells and pMT-NHK1 cells overexpressing VRK1/NHK1
[3] = biological target: T2, CENP-C (Drosophila melanogaster (endogenous in S2 cells)) (UniProt Q9VHP9); assay: as above
T2 sequence: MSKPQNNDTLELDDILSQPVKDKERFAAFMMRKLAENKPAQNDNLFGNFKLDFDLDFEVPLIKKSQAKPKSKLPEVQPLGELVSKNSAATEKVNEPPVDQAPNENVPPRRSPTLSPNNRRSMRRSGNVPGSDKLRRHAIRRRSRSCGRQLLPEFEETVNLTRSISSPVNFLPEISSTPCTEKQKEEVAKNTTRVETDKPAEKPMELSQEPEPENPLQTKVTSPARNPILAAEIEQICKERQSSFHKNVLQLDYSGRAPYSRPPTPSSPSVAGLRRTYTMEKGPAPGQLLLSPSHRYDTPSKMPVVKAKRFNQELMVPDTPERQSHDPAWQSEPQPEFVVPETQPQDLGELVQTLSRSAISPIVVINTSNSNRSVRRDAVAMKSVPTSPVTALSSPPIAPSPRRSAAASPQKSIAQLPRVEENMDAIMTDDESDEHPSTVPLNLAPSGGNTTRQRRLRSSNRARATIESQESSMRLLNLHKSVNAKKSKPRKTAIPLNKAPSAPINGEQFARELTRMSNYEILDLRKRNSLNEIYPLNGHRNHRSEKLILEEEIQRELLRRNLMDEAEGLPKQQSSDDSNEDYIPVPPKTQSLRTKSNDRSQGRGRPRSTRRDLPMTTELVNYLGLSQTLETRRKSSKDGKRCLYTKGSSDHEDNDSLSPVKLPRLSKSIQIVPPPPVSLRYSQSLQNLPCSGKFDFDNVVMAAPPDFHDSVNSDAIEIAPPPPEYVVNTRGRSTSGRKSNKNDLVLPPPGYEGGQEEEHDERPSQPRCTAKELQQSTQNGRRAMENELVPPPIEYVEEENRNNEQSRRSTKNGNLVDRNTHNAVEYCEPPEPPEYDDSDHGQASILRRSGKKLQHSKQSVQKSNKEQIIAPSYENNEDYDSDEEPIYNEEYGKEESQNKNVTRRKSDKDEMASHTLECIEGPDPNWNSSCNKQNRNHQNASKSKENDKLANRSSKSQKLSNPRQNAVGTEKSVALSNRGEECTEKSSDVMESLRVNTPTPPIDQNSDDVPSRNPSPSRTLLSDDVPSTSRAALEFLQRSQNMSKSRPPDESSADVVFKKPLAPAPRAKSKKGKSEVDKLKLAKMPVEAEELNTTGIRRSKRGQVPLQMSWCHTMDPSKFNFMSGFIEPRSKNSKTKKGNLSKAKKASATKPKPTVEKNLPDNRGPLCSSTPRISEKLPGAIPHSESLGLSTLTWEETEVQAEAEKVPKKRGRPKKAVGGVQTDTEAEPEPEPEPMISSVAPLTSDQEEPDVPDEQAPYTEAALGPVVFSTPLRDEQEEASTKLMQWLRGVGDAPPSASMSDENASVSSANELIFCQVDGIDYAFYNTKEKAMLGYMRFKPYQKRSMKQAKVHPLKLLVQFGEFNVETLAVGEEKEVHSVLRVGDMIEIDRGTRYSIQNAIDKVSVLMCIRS

[4] = biological target: CENP-A^CID::YFP fusion protein (Drosophila) (UniProt Q9V6Q2); assay: co-IP; extracts of a stable S2 cell line expressing CENP-A^CID::YFP; IP with αBAF or αGFP antibodies, WB
[5] = biological target: T1, Barrier-to-autointegration factor (BAF) (Drosophila melanogaster (endogenous in S2 cells)); assay: co-IP; extracts of stable S2 lines expressing GFP::CENP-C^R or GFP::CENP-CΔFIM^R, control dsRNA^LacZ or depleted of endogenous CENP-C (dsRNA^CENP-C); IP with αBAF antibodies, mock with preimmune serum, WB with αGFP and αBAF

Molecule: CENP-A^CID::YFP fusion protein (from UniProt Q9V6Q2 1-225)
- binding [1]: no binding

B1: CENP-C (protein, UniProt Q9VHP9 1-1411)
chain: MSKPQNNDTLELDDILSQPVKDKERFAAFMMRKLAENKPAQNDNLFGNFKLDFDLDFEVPLIKKSQAKPKSKLPEVQPLGELVSKNSAATEKVNEPPVDQAPNENVPPRRSPTLSPNNRRSMRRSGNVPGSDKLRRHAIRRRSRSCGRQLLPEFEETVNLTRSISSPVNFLPEISSTPCTEKQKEEVAKNTTRVETDKPAEKPMELSQEPEPENPLQTKVTSPARNPILAAEIEQICKERQSSFHKNVLQLDYSGRAPYSRPPTPSSPSVAGLRRTYTMEKGPAPGQLLLSPSHRYDTPSKMPVVKAKRFNQELMVPDTPERQSHDPAWQSEPQPEFVVPETQPQDLGELVQTLSRSAISPIVVINTSNSNRSVRRDAVAMKSVPTSPVTALSSPPIAPSPRRSAAASPQKSIAQLPRVEENMDAIMTDDESDEHPSTVPLNLAPSGGNTTRQRRLRSSNRARATIESQESSMRLLNLHKSVNAKKSKPRKTAIPLNKAPSAPINGEQFARELTRMSNYEILDLRKRNSLNEIYPLNGHRNHRSEKLILEEEIQRELLRRNLMDEAEGLPKQQSSDDSNEDYIPVPPKTQSLRTKSNDRSQGRGRPRSTRRDLPMTTELVNYLGLSQTLETRRKSSKDGKRCLYTKGSSDHEDNDSLSPVKLPRLSKSIQIVPPPPVSLRYSQSLQNLPCSGKFDFDNVVMAAPPDFHDSVNSDAIEIAPPPPEYVVNTRGRSTSGRKSNKNDLVLPPPGYEGGQEEEHDERPSQPRCTAKELQQSTQNGRRAMENELVPPPIEYVEEENRNNEQSRRSTKNGNLVDRNTHNAVEYCEPPEPPEYDDSDHGQASILRRSGKKLQHSKQSVQKSNKEQIIAPSYENNEDYDSDEEPIYNEEYGKEESQNKNVTRRKSDKDEMASHTLECIEGPDPNWNSSCNKQNRNHQNASKSKENDKLANRSSKSQKLSNPRQNAVGTEKSVALSNRGEECTEKSSDVMESLRVNTPTPPIDQNSDDVPSRNPSPSRTLLSDDVPSTSRAALEFLQRSQNMSKSRPPDESSADVVFKKPLAPAPRAKSKKGKSEVDKLKLAKMPVEAEELNTTGIRRSKRGQVPLQMSWCHTMDPSKFNFMSGFIEPRSKNSKTKKGNLSKAKKASATKPKPTVEKNLPDNRGPLCSSTPRISEKLPGAIPHSESLGLSTLTWEETEVQAEAEKVPKKRGRPKKAVGGVQTDTEAEPEPEPEPMISSVAPLTSDQEEPDVPDEQAPYTEAALGPVVFSTPLRDEQEEASTKLMQWLRGVGDAPPSASMSDENASVSSANELIFCQVDGIDYAFYNTKEKAMLGYMRFKPYQKRSMKQAKVHPLKLLVQFGEFNVETLAVGEEKEVHSVLRVGDMIEIDRGTRYSIQNAIDKVSVLMCIRS
- binding [2]: binds

B2: Barrier-to-autointegration factor (BAF) (protein, UniProt Q9VLU0 1-90)
chain: MSGTSQKHRNFVAEPMGNKSVTELAGIGETLGGRLKDAGFDMAYTVLGQYLVLKKDEELFKDWMKEVCHASSKQASDCYNCLNDWCEEFL
- binding [3]: binds
- binding [4]: no binding

B3: GFP::CENP-C^R (protein, UniProt Q9VHP9 1-1411)
chain: MSKPQNNDTLELDDILSQPVKDKERFAAFMMRKLAENKPAQNDNLFGNFKLDFDLDFEVPLIKKSQAKPKSKLPEVQPLGELVSKNSAATEKVNEPPVDQAPNENVPPRRSPTLSPNNRRSMRRSGNVPGSDKLRRHAIRRRSRSCGRQLLPEFEETVNLTRSISSPVNFLPEISSTPCTEKQKEEVAKNTTRVETDKPAEKPMELSQEPEPENPLQTKVTSPARNPILAAEIEQICKERQSSFHKNVLQLDYSGRAPYSRPPTPSSPSVAGLRRTYTMEKGPAPGQLLLSPSHRYDTPSKMPVVKAKRFNQELMVPDTPERQSHDPAWQSEPQPEFVVPETQPQDLGELVQTLSRSAISPIVVINTSNSNRSVRRDAVAMKSVPTSPVTALSSPPIAPSPRRSAAASPQKSIAQLPRVEENMDAIMTDDESDEHPSTVPLNLAPSGGNTTRQRRLRSSNRARATIESQESSMRLLNLHKSVNAKKSKPRKTAIPLNKAPSAPINGEQFARELTRMSNYEILDLRKRNSLNEIYPLNGHRNHRSEKLILEEEIQRELLRRNLMDEAEGLPKQQSSDDSNEDYIPVPPKTQSLRTKSNDRSQGRGRPRSTRRDLPMTTELVNYLGLSQTLETRRKSSKDGKRCLYTKGSSDHEDNDSLSPVKLPRLSKSIQIVPPPPVSLRYSQSLQNLPCSGKFDFDNVVMAAPPDFHDSVNSDAIEIAPPPPEYVVNTRGRSTSGRKSNKNDLVLPPPGYEGGQEEEHDERPSQPRCTAKELQQSTQNGRRAMENELVPPPIEYVEEENRNNEQSRRSTKNGNLVDRNTHNAVEYCEPPEPPEYDDSDHGQASILRRSGKKLQHSKQSVQKSNKEQIIAPSYENNEDYDSDEEPIYNEEYGKEESQNKNVTRRKSDKDEMASHTLECIEGPDPNWNSSCNKQNRNHQNASKSKENDKLANRSSKSQKLSNPRQNAVGTEKSVALSNRGEECTEKSSDVMESLRVNTPTPPIDQNSDDVPSRNPSPSRTLLSDDVPSTSRAALEFLQRSQNMSKSRPPDESSADVVFKKPLAPAPRAKSKKGKSEVDKLKLAKMPVEAEELNTTGIRRSKRGQVPLQMSWCHTMDPSKFNFMSGFIEPRSKNSKTKKGNLSKAKKASATKPKPTVEKNLPDNRGPLCSSTPRISEKLPGAIPHSESLGLSTLTWEETEVQAEAEKVPKKRGRPKKAVGGVQTDTEAEPEPEPEPMISSVAPLTSDQEEPDVPDEQAPYTEAALGPVVFSTPLRDEQEEASTKLMQWLRGVGDAPPSASMSDENASVSSANELIFCQVDGIDYAFYNTKEKAMLGYMRFKPYQKRSMKQAKVHPLKLLVQFGEFNVETLAVGEEKEVHSVLRVGDMIEIDRGTRYSIQNAIDKVSVLMCIRS
- binding [5]: binds
